Results: patent US8895035B2, “Alkoxyimino derivative and pest control agent” (Kumiai Chemical Industry Co., Ltd, priority 2010, dated 2014)
Some of these results come from one statement about several compounds together. For at least one compound, name, drawing or mass did not settle the structure.

How the values were obtained:
Assay type in all cases: in vivo
[1] = tested on: Aphis gossipii Glover (cotton aphid, melon aphid); experiment: Insecticidal action test for Aphis gossipii Glover (seedling immersion); settings: 500 ppm active ingredient; cucumber seedlings with hatchlings immersed; 25° C.; after 3 days
[2] = tested on: Nilaparvata lugens Stál (brown rice planthopper); experiment: Insecticidal action test for Nilaparvata lugens Stál (immersed sprouting rice); settings: 500 ppm active ingredient; sprouting unhulled rice immersed; 3-age larvae; 25° C.; after 6 days
[3] = tested on: Brown planthopper (Nilaparvata lugens); experiment: Trial of systematic insecticidal activity against brown planthopper; settings: 1,800 ppm active ingredient; 250 μl poured to rice-plant foot of rice seedlings; 3-age larvae; 25° C.; after 6 days
Experimental: A wettable powder prepared based on Formulation Example 2 was diluted with water so that the concentration of active ingredient became 1,800 ppm. 250 μl of the diluted formulation was poured to the rice-plant foot of 2.5-leaf age rice seedlings planted in a paper pot of 1.5 cm (length)×1.5 cm (width)×3 cm (height). Then, the paper pot was placed in a plastic cup of 700 ml. Into the plastic cup were released 5 3-age larvae of Nilaparvata lugens Stál (brown rice planthopper). The cup was covered with a cap and placed in a thermostat of 25° C. After 6 days, the number of living insects was counted and the mortality of insect was calculated using the calculation formula of Mathematical Expression 1.

Row | Structure (SMILES) | insect mortality [1] | insect mortality [2] | insect mortality [3]
1 | CC(C)CON=C(Cl)C(=NOC(C)C)n1cncn1 [I-6] | ≥ 90% | ≥ 90% | ≥ 90%
2 | CCC(C)ON=C(Cl)C(=NOC(C)C)n1cncn1 (stereo not drawn) [I-7] | ≥ 90% | ≥ 90% | ≥ 90%
3 | CC(C)ON=C(C(Cl)=NOC(C)(C)C)n1cncn1 [I-8] | ≥ 90% | ≥ 90% | ≥ 90%
4 | CCCCCON=C(Cl)C(=NOC(C)C)n1cncn1 [I-9] | ≥ 90% | ≥ 90% | ≥ 90%
5 | CC(C)ON=C(C(Cl)=NOCC(C)(C)C)n1cncn1 [I-11] | ≥ 90% | ≥ 90% | ≥ 90%
6 | CCC(CC)ON=C(Cl)C(=NOC(C)C)n1cncn1 [I-13] | ≥ 90% | ≥ 90% | ≥ 90%
7 | CC(C)ON=C(C(Cl)=NOC1CCCC1)n1cncn1 [I-16] | – | ≥ 90% | ≥ 90%
8 | CC(C)ON=C(C(Cl)=NOCC1CC1)n1cncn1 [I-18] | ≥ 90% | ≥ 90% | ≥ 90%
9 | CC(C)ON=C(C(Cl)=NOCC1CCC1)n1cncn1 [I-19] | ≥ 90% | ≥ 90% | ≥ 90%
10 | C=CCON=C(Cl)C(=NOC(C)C)n1cncn1 [I-21] | ≥ 90% | ≥ 90% | ≥ 90%
11 | C#CCON=C(Cl)C(=NOC(C)C)n1cncn1 [I-22] | ≥ 90% | ≥ 90% | ≥ 90%
12 | CCON=C(C#N)C(=NOC(C)C)n1cncn1 [I-48] | ≥ 90% | ≥ 90% | ≥ 90%
13 | CC(C)CON=C(C#N)C(=NOC(C)C)n1cncn1 [I-52] | ≥ 90% | ≥ 90% | ≥ 90%
14 | CCC(C)ON=C(C#N)C(=NOC(C)C)n1cncn1 (stereo not drawn) [I-53] | – | ≥ 90% | ≥ 90%
15 | CC(C)CCON=C(C#N)C(=NOC(C)C)n1cncn1 [I-56] | ≥ 90% | ≥ 90% | ≥ 90%
16 | CC(C)ON=C(C(C#N)=NOCC1CC1)n1cncn1 [I-64] | ≥ 90% | ≥ 90% | ≥ 90%
17 | CCON=C(C(N)=O)C(=NOC(C)C)n1cncn1 [I-71] | ≥ 90% | ≥ 90% | ≥ 90%
18 | CCCON=C(C(N)=O)C(=NOC(C)C)n1cncn1 [I-72] | ≥ 90% | ≥ 90% | ≥ 90%
19 | CCCCON=C(C(N)=O)C(=NOC(C)C)n1cncn1 [I-74] | – | ≥ 90% | ≥ 90%
20 | CC(C)CON=C(C(N)=O)C(=NOC(C)C)n1cncn1 [I-75] | ≥ 90% | ≥ 90% | ≥ 90%
21 | CCC(C)ON=C(C(N)=O)C(=NOC(C)C)n1cncn1 (stereo not drawn) [I-76] | ≥ 90% | ≥ 90% | ≥ 90%

Row | Structure (SMILES) | insect mortality [1] | insect mortality [2] | insect mortality [3]
22 | CC(C)ON=C(C(=NOCC1CC1)C(N)=O)n1cncn1 [I-87] | ≥ 90% | ≥ 90% | ≥ 90%
23 | CC(=NOC(C)C)C(=NOC(C)C)n1cncn1 [I-96] | – | ≥ 90% | ≥ 90%
24 | NC(=NOCC1CC1)C(=NOCC1CC1)n1cncn1 [I-133] | – | ≥ 90% | ≥ 90%
25 | COC(=NOCC(C)C)C(=NOCC(C)C)n1cncn1 [I-167] | ≥ 90% | ≥ 90% | ≥ 90%
26 | COC(=NOCC1CC1)C(=NOCC1CC1)n1cncn1 [I-179] | ≥ 90% | ≥ 90% | ≥ 90%
27 | CCON=C(C(N)=NO)C(=NOCC)n1cncn1 [I-186] | – | ≥ 90% | ≥ 90%
28 | CC(C)CON=C(C(N)=NO)C(=NOCC(C)C)n1cncn1 [I-190] | ≥ 90% | ≥ 90% | ≥ 90%
29 | CC(C)(C)CCON=C(C(N)=NO)C(=NOCCC(C)(C)C)n1cncn1 [I-199] | – | ≥ 90% | ≥ 90%
30 | CC(=O)NC(=NOCC1CC1)C(=NOCC1CC1)n1cncn1 [I-218] | – | ≥ 90% | ≥ 90%
31 | COC(=N)C(=NOC(C)C)C(=NOC(C)C)n1cncn1 [I-223] | ≥ 90% | ≥ 90% | ≥ 90%
32 | CC(C)ON=C(C(=NOC(C)C)C(F)(F)F)n1cncn1 [I-229] | ≥ 90% | ≥ 90% | ≥ 90%
33 | CCC(=NOC(C)C)C(=NOC(C)C)n1cncn1 [I-230] | ≥ 90% | ≥ 90% | ≥ 90%
34 | CC(C)ON=C(C(=NOC(C)C)n1cncn1)C(C)C [I-231] | – | ≥ 90% | ≥ 90%
35 | N#CC(=NOCC(F)(F)F)C(=NOCC(F)(F)F)n1cncn1 [I-236] | ≥ 90% | ≥ 90% | ≥ 90%
36 | CON=C(C(Cl)=NOC(C)C)n1cncn1 [II-4] | ≥ 90% | ≥ 90% | ≥ 90%
37 | CON=C(C(Cl)=NOCC(C)C)n1cncn1 [II-6] | ≥ 90% | ≥ 90% | ≥ 90%
38 | CON=C(C(C#N)=NOCC(C)C)n1cncn1 [II-52] | ≥ 90% | ≥ 90% | ≥ 90%
39 | CON=C(C(C#N)=NOCCC(C)C)n1cncn1 [II-56] | ≥ 90% | ≥ 90% | ≥ 90%
40 | CON=C(C(C#N)=NOCCC(C)(C)C)n1cncn1 [II-61] | ≥ 90% | ≥ 90% | ≥ 90%
41 | CON=C(C(=NOCC(C)C)C(N)=O)n1cncn1 [II-75] | – | ≥ 90% | ≥ 90%
42 | CON=C(C(=NOCCC(C)(C)C)C(N)=O)n1cncn1 [II-84] | – | ≥ 90% | ≥ 90%

Row | Structure (SMILES) | insect mortality [1] | insect mortality [2] | insect mortality [3]
43 | CON=C(C(=NOC1CCCC1)C(N)=O)n1cncn1 [II-85] | – | ≥ 90% | ≥ 90%
44 | CCON=C(C(=NOCC(C)C)C(N)=O)n1cncn1 [III-75] | – | ≥ 90% | ≥ 90%
45 | CCCON=C(C(Cl)=NOC(C)C)n1cncn1 [IV-1] | ≥ 90% | ≥ 90% | –
46 | CC(C)ON=C(Cl)C(=NOC(C)(C)C)n1cncn1 [IV-4] | – | ≥ 90% | ≥ 90%
47 | C=CCON=C(C(=NOC(C)C)C(N)=O)n1cncn1 [IV-22] | ≥ 90% | ≥ 90% | –
48 | CC(C)ON=C(C(N)=O)C(=NOCC(F)(F)F)n1cncn1 [IV-25] | – | ≥ 90% | ≥ 90%
49 | CCCON=C(C(C#N)=NOC(C)C)n1cncn1 [IV-30] | ≥ 90% | ≥ 90% | –
50 | CCC(C)ON=C(C(C#N)=NOC(C)C)n1cncn1 (stereo not drawn) [IV-33] | ≥ 90% | ≥ 90% | –
51 | C=CCON=C(C(C#N)=NOC(C)C)n1cncn1 [IV-37] | ≥ 90% | ≥ 90% | –
52 | C#CCON=C(C(C#N)=NOC(C)C)n1cncn1 [IV-38] | ≥ 90% | ≥ 90% | –
53 | CC#CCON=C(C(C#N)=NOC(C)C)n1cncn1 [IV-39] | ≥ 90% | ≥ 90% | –
54 | CC(C)ON=C(C#N)C(=NOCC(F)(F)F)n1cncn1 [IV-40] | – | ≥ 90% | ≥ 90%
55 | CCCON=C(C(C#N)=NOCC(F)(F)F)n1cncn1 [IV-98] | ≥ 90% | ≥ 90% | –
56 | CCCON=C(C(C#N)=NOCc1ccccc1)n1cncn1 [IV-99] | ≥ 90% | ≥ 90% | –
57 | CCCCON=C(C(N)=O)C(=NOCCC)n1cncn1 [IV-102] | ≥ 90% | ≥ 90% | –
58 | CCCON=C(C(=NOC(C)CC)C(N)=O)n1cncn1 (stereo not drawn) [IV-104] | ≥ 90% | ≥ 90% | –
59 | C=CCON=C(C(N)=O)C(=NOCCC)n1cncn1 [IV-107] | ≥ 90% | ≥ 90% | –
60 | N#CC(=NOCc1ccccc1)C(=NOCC(F)(F)F)n1cncn1 [IV-181, 1-[2-benzyloxyimino-2-cyano-1-(2,2,2-trifluoroetoxyimino)ethyl]-1H-1,2,4-triazole] | ≥ 90% | ≥ 90% | –
61 | CCON=C(Cl)C(C#N)=NOC(C)(C)C [VI-96] | ≥ 90% | ≥ 90% | –
